The test is described as follows: qHTS Assay for Lipid Storage Modulators in Drosophila S3 Cells.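 On cell number change: cells counted by Cell Tracker Red CMTPX staining in the red channel.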 The note with it: BODIPY lipid droplet fluorescence, 18-24 h; for cell number change: measured here: cell count max response, cells fed with added oleic acid. Summed up:
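Laser-scanning cytometry quantifies lipid droplet accumulation (500–530 nm total intensity; droplet/cell object ratio) in oleic acid-fed (400 uM added) Drosophila S3 cells treated with a concentration series. 20 uM Triacsin C defined 100% inhibition.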
A general note: In qHTS, concentration-response curves come from the screen itself.

[1] abbreviates: measured here: cell number channel AC50, cells fed with added oleic acid.
The mark [2] stands for this setting: measured here: lipid fluorescence (Fed channel) AC50, cells fed with added oleic acid.

The list shows a part of the results. The main result of the screen is listed elsewhere. These columns were measured beside it and carry no call. Most of these compounds were active or inconclusive in the main read-out, so they are no random draw. Potencies come from curve fits of mixed quality, noted in brackets.

In general, AC50 refers to the concentration at which the activity in the assay is half-maximal. Regarding `N=c1c(S(=O)(=O)c2ccccc2)cc2c(=O)n3ccccc3nc2n1Cc1cccnc1`, the cell number change was 110%. Besides, the AC50 under setting [1] is 29.1 µM [rising, single point]. The AC50 under setting [2] is 6.51 µM [falling, full curve, poor fit].
In the case of `O=C(O)CCN1C(=O)/C(=C\c2ccncc2)SC1=S`, the cell number change came out at 52.5%. For the same compound, the AC50 under setting [1] is 8.2 µM [rising, partial curve].
With `COc1cccc(NC(=O)Cn2c(=O)n(-c3cc(OC)c(OC)c(OC)c3)c(=O)c3ccccc32)c1`, the cell number change is -3.26%. Further, the AC50 under setting [1] was 0.517 µM [falling, single point].
Turning to `O=C1CN(C(=O)COC(=O)CNC(=O)c2ccc(Cl)cc2)c2ccccc2N1`, the cell number change worked out at 3.21%.
In the case of `Cc1ncc(CO)c2c1Oc1nc(-c3ccccc3)nc(SCC(=O)N3CCOCC3)c1C2`, the cell number change is -30.7%. Under setting [1], the AC50 is 4.61 µM [falling, partial curve].
Turning to `O=C(O)C(=O)/C(=C\c1ccccc1)c1ccc2ccccc2n1`, the AC50 under setting [2] was 6.51 µM [rising, partial curve, poor fit].
`Cc1ccc(C)c(S(=O)(=O)Nc2ccc(O)cc2)c1`: the cell number change is -9.95%. Also, under setting [2], the AC50 is 0.00461 µM [falling, full curve, poor fit].
Turning to `COC(=O)c1onc(-c2c(OC)cc(OC)cc2OC)c1C(=O)OC`, the cell number change is -2.28%. Moreover, the AC50 under setting [2] is 7.31 µM [rising, partial curve].
Consider `Nc1nc(SCc2ccc3c(c2)OCCO3)n[nH]1`, for which the cell number change was determined as 0.76%.
Turning to `COc1ccc(N(C(=O)c2cnccn2)C(C(=O)NC2CCCCC2)c2cc(OC)c(OC)c(OC)c2)cc1` (stereo not given), the cell number change was determined as 5.26%. Moreover, the AC50 under setting [2] is 0.631 µM [falling, partial curve, poor fit].
Take `S=C(NCC1CCCO1)NC1CCCCC1` (stereo not given): the cell number change is -1.75%. The AC50 under setting [2] is 2.59 µM [falling, partial curve].
As to `Cn1nc(-c2ccccc2)c(C#N)c1Sc1cccc(Cl)c1`, the cell number change amounted to 11.8%. Also, the AC50 under setting [2] was 29.1 µM [rising, single point].
For `C#CCOc1c(Cl)cc(/C=C2/C(=O)ON=C2C)cc1OC`, the cell number change is -2.84%. The AC50 under setting [1] is 0.58 µM [rising, partial curve, poor fit]. Besides, the concentration at half-maximal activity (AC50) under setting [2] is 0.731 µM [rising, partial curve, poor fit].
For `Cc1cccc(NC(=S)N2CCN(C(=O)C3CCCO3)CC2)c1` (stereo not given), the cell number change was -23.2%. Further, under setting [2], the AC50 was 29.1 µM [falling, single point].
For `COc1ccc(C(O)(CCN2CCCCC2)C2CCCCC2)cc1` (stereo not given), the cell number change is -23.4%. Moreover, the AC50 under setting [2] was 29.1 µM [falling, single point].
Turning to `COC(=O)c1[nH]c2cc(OC)ccc2c1NC(=O)c1c(F)cccc1F`, the cell number change is -7.14%. In addition, the AC50 under setting [2] was 0.13 µM [falling, full curve, poor fit].
`COc1ccc(NC(=O)N2CCCC2C(=O)NC2CCCC2)cc1` (stereo not given): the cell number change worked out at 6.67%. Moreover, the AC50 under setting [2] was 29.1 µM [rising, partial curve, poor fit].
Turning to `Cn1c(=O)[nH]c(=O)c2c1[nH]c(=S)n2Cc1ccc(Cl)cc1`, the cell number change is -44.5%. Under setting [1], the AC50 is 29.1 µM [falling, single point]. The AC50 under setting [2] is 29.1 µM [falling, single point].
Turning to `Cc1nnc(N/N=C/c2ccccc2C(F)(F)F)n1N`, the cell number change is -20.7%.
With `C=CCn1c(C)cc(-c2csc(N)n2)c1C`, the cell number change came out at 67.3%. The AC50 under setting [1] is 23.1 µM [rising, single point].
For the compound `Nc1nc(-c2ccccn2)nc(N)c1Cc1ccc(Cl)cc1Cl`, the cell number change is -45.8%. The AC50 under setting [1] is 2.06 µM [rising, single point].
For `CCNC(=S)N(Cc1ccc(OC)cc1)C1CC(=O)N(c2ccc(OCC)cc2)C1=O` (stereo not given), the AC50 is 0.651 µM [falling, single point] under setting [1] and 0.58 µM [falling, single point] under setting [2].
As for `COC(=O)Cc1c(O)ccn(CCc2ccc(OC)c(OC)c2)c1=O`, the cell number change is -15.1%. Moreover, the AC50 under setting [1] is 0.58 µM [falling, partial curve, poor fit]. Moreover, the AC50 under setting [2] was 29.1 µM [rising, single point].
As for `CCOC(=O)c1ccccc1NC1c2ccccc2C(=O)N1C1CCN(C(=O)OCC)CC1` (stereo not given), the cell number change was -15.6%. The AC50 under setting [2] is 5.8 µM [falling, partial curve].
On to `Cn1c(=O)n(C)c2cc(N3CCCC3)c(NC(=O)c3cccc(F)c3)cc21`, for which the cell number change turned out to be 91.1%. For the same compound, the AC50 under setting [1] is 29.1 µM [rising, single point]. Besides, the AC50 under setting [2] is 18.4 µM [rising, single point].
On to `CC(C)C(NC(=O)c1c(F)cccc1F)C(=O)N1CCN(S(=O)(=O)/C=C/c2ccccc2)CC1` (stereo not given), for which the cell number change is -15.3%. The AC50 under setting [2] was 25.9 µM [rising, single point].
As for `CCC(=O)c1ccc(OCC(=O)OCC(=O)c2cc(C)n(C)c2C)cc1`, the cell number change is -13.5%. Also, the AC50 under setting [2] was 29.1 µM [rising, single point].
`Cn1c(NC(=O)CCC2CCCCC2)cc(=O)n(C)c1=O`: the cell number change was -47%. The AC50 under setting [1] is 16.4 µM [falling, partial curve, poor fit]. Further, the AC50 under setting [2] was 23.1 µM [falling, single point].
With `CCCCn1c(N)c(N(CCOC)C(=O)C2CC(=O)N(Cc3ccc(C)cc3)C2)c(=O)[nH]c1=O` (stereo not given), the cell number change is -5.98%.
`COc1ccc(Cc2nnc(NCCO)[nH]c2=O)cc1`: the cell number change stood at 17.1%.
`O=C(OCc1nnc(-c2ccccc2)o1)C1CC(=O)N(CCc2ccccc2)C1` (stereo not given): the cell number change is 3.61%. For the same compound, the AC50 under setting [2] is 2.59 µM [rising, partial curve].
Consider `CCOC(=O)Cn1nc(C)c(NC(=O)COc2ccccc2)c1C`, for which the cell number change was -7.69%. Also, the AC50 under setting [1] is 6.51 µM [falling, single point]. For the same compound, the half-maximal activity concentration (AC50) under setting [2] is 4.11 µM [falling, partial curve, poor fit].
For the compound `CC(C)C[C@H](NC(=O)Nc1ccc2c(c1)OCCO2)C(=O)O`, the AC50 under setting [2] is 23.1 µM [falling, partial curve].
For `O=S(=O)(Nc1ccccc1)c1cccc2nonc12`, the cell number change was -8.56%. Under setting [2], the AC50 is 7.31 µM [rising, partial curve].
With `CCCN=C(C)C1=C(O)c2ccccc2C1=O`, the cell number change was found to be 0.199%. In addition, under setting [2], the AC50 is 6.51 µM [rising, full curve, poor fit].
With `COc1ccc(S(=O)(=O)NC(C)(C)C)cc1-c1nnc2c3ccccc3c(C)nn12`, the AC50 is, setting by setting: under setting [1], 1.64 µM [rising, partial curve]; under setting [2], 2.91 µM [rising, partial curve].
Regarding `Cc1ccc(C(=O)NN(CCC(=O)NC(C)(C)C)C2=NS(=O)(=O)c3ccccc32)cc1`, the cell number change is 10.5%. For the same compound, the AC50 under setting [2] is 25.9 µM [rising, single point].
On to `CCOc1ccc(OCCOCCOc2ccccc2Cl)cc1`, for which the cell number change was determined as 30.7%. The AC50 under setting [1] was 32.6 µM [rising, single point]. For the same compound, under setting [2], the AC50 is 18.4 µM [rising, partial curve].
`COc1cc(OC)cc(C(=O)OCC(=O)NC(C)CCc2ccccc2)c1` (stereo not given): the cell number change amounted to 82%. Also, the AC50 under setting [1] is 18.4 µM [rising, single point].
On to `CCCCCOc1ccc(C(=O)CCC(=O)NNC(=O)c2ccncc2)cc1`, for which the cell number change was -25%.
On the same count and under the same terms, the same measure for `COCCNc1nc2c(c(=O)n(Cc3cccc(Cl)c3)c(=O)n2C)n1C`: 5%.
`CC1(C)CC(=O)C=C(NCc2cccs2)C1`: the cell number change is -34.7%. Further, the concentration at half-maximal activity (AC50) under setting [2] was 2.31 µM [falling, full curve, poor fit].
As to `O=C(N/N=C/c1cc(Br)cc([N+](=O)[O-])c1O)c1ccc(NC(=O)c2ccc(F)cc2)cc1`, the cell number change is -12%.
For the compound `Cc1cc(NC(=O)Cc2ccccc2)nc2c1c(=O)oc1ccccc12`, the AC50 under setting [1] was 0.411 µM [rising, full curve] and the AC50 under setting [2] was 1.03 µM [rising, full curve].
For the compound `CCN1C(=O)/C(=C\N2CCCc3ccccc32)SC1=S`, the cell number change amounted to 7.26%. In addition, under setting [2], the AC50 is 29.1 µM [rising, single point].
As to `c1ccc2nc(-c3ccc4c(c3)OCO4)ccc2c1`, the AC50 was 1.64 µM [rising, partial curve] under setting [1] and 0.058 µM [rising, full curve] under setting [2].
Turning to `CC12CC(NC(=O)N1c1cccc(C(=O)N3CCN(c4ccccc4)CC3)c1)c1ccccc1O2` (stereo not given), the cell number change was -11.4%.
In the case of `O=[N+]([O-])c1cccnc1N1CCOCC1`, the cell number change is -6.36%. For the same compound, under setting [1], the AC50 was 1.16 µM [rising, full curve]. Besides, the AC50 under setting [2] was 0.461 µM [rising, full curve, poor fit].
As to `Cc1ccc(NC(=O)c2ccc(Cl)nc2)cc1`, the AC50 under setting [2] was 6.51 µM [falling, single point].
For `Cc1cc(O)c(/C=N/Nc2ccc(F)cc2)c(=O)o1`, the cell number change was 33.6%.
For `COc1cc2c(cc1OC)CN(C(=O)Cc1ccc(OC)c(S(=O)(=O)N3CCOCC3)c1)CC2`, the cell number change stood at 9.09%. The AC50 under setting [1] is 1.84 µM [falling, partial curve].
As to `COc1ccc(-c2nnc3sc(CCN4C(=O)c5ccccc5C4=O)nn23)cc1`, the cell number change was -17.4%. For the same compound, under setting [2], the AC50 is 3.26 µM [rising, full curve, poor fit].
For `CC(NCc1cccc(S(=O)(=O)N(C)C)c1)c1ccc(F)cc1` (stereo not given), the cell number change was -43.6%. For the same compound, the AC50 under setting [1] is 29.1 µM [falling, single point]. Also, the AC50 under setting [2] was 29.1 µM [falling, single point].
Take `Cc1ccccc1Nc1nnc(C)c(=O)[nH]1`: the AC50 under setting [2] was 6.51 µM [rising, single point].
On to `COc1ccc(OC)c(C(=O)COC(=O)CNC(=O)C2CCCCC2)c1`, for which the cell number change turned out to be 3.81%. Further, under setting [2], the AC50 is 6.51 µM [falling, single point].
`O=C(CSc1nnc(-c2cccc(F)c2)o1)N1CCCC1`: the cell number change is -1.28%.
As to `O=C(COC(=O)c1ncc(Cl)c(Cl)c1Cl)NNC(=O)c1ccccc1`, the cell number change was -5.15%. Further, the AC50 under setting [2] is 32.6 µM [falling, partial curve].
In the case of `Brc1ccc2ncnc(Nc3ccc(N4CCOCC4)cc3)c2c1`, the cell number change was -24.6%. For the same compound, under setting [2], the AC50 was 0.58 µM [rising, single point].
`O=C(Nc1ccc(Br)cc1)/C(=C/c1cccc([N+](=O)[O-])c1)NC(=O)C1CCCCC1`: the AC50 under setting [1] is 2.31 µM [rising, partial curve].
Consider `Cc1ccc(C(=O)NCCc2n[nH]c(=S)n2C)cc1`, for which the cell number change came to 41.9%. Besides, under setting [1], the AC50 is 18.4 µM [rising, partial curve, poor fit]. Besides, the AC50 under setting [2] is 29.1 µM [rising, single point].

(Values after PubChem BioAssay AID2685 (National Center for Advancing Translational Sciences (NCATS), 2010).)
